Measurements as given in article PMC6301718, “CDHR3 extracellular domains EC1-3 mediate rhinovirus C interaction with cells and as recombinant derivatives, are inhibitory to virus infection” (PLoS Pathogens, 2018).
These are yes or no findings as the source states them, for the method shown.

Protein sequences, listed by entry. Tags and fused reporters are not part of them. Lines headed by an entry give the natural chain unless they say otherwise; changes in a name come on top. Chains listed by the source or under a name are the forms on record and can include a tag or linker. Residues count along the entry.
rEC1 (CDHR3 residues 20–130) (Q6ZTQ4, residues 20-130): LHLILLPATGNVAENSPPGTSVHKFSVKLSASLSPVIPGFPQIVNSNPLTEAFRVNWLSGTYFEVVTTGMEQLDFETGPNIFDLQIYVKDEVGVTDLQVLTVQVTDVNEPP
rEC1 W76A (CDHR3 residues 20–130, W76A) (Q6ZTQ4, form named): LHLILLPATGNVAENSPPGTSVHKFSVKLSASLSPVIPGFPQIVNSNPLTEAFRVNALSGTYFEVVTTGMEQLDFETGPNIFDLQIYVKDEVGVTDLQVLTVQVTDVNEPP

Experiments:
[1] = target: rEC1 (CDHR3 residues 20–130) (human) (UniProt Q6ZTQ4); test: SEC; HiPrep 16/60 Sephacryl S200, refolded protein 0.5–1.5 mg, 1 mL/min, 20 mM Tris (pH 8.0), 137 mM NaCl, 2 mM CaCl2; both purified
[2] = target: rEC1 W76A (CDHR3 residues 20–130, W76A) (human) (UniProt Q6ZTQ4); test: as above

Substance	binding [1]	binding [2]
rEC1 (CDHR3 residues 20–130) (from UniProt Q6ZTQ4 20-130) (domain or fragment)	no binding	
rEC1 W76A (CDHR3 residues 20–130, W76A) (from UniProt Q6ZTQ4 20-130) (domain or fragment)		no binding
